According to patent publication US20050233973A1, “Tri-peptides for antidepressant applications” (priority 1997, published 2005):
Non-standard residues stand in square brackets, D forms with d. No end group written: not given here. pGlu = O=C1CC[C@@H](C(=O)O)N1

Assay: Brain peptide levels (HPLC + RIA) after gabapentin treatment or withdrawal
Format: in vivo, Sprague-Dawley male rats

## [pGlu]HPG [TRH-Gly, a TRH precursor]
Anterior cingulate, gabapentin withdrawal (W)
  change in immunoreactivity (IR): increased
hippocampus, acute gabapentin (A)
  change in immunoreactivity (IR): decreased
Pyriform cortex, chronic gabapentin (C)
  change in immunoreactivity (IR): decreased
